Our source for the binding values is publication PMC5214253.

Protein sequences, listed by entry. Tags and fused reporters are not part of them.
UniProt P03209: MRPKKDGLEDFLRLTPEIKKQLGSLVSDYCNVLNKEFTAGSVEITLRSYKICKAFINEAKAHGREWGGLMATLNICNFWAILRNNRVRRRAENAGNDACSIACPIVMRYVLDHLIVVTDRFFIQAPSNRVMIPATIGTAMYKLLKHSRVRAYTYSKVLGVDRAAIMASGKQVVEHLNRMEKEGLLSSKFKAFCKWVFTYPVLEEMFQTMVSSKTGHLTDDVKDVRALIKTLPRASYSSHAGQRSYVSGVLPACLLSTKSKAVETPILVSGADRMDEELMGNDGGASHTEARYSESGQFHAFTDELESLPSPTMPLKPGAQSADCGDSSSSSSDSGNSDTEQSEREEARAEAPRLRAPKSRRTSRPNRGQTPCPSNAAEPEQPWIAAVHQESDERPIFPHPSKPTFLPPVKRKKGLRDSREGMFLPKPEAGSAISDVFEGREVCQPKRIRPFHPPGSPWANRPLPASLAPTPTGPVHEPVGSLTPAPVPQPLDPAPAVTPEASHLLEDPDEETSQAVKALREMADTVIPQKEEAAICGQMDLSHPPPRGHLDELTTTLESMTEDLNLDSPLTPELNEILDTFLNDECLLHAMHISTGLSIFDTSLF
UniProt Q9C035: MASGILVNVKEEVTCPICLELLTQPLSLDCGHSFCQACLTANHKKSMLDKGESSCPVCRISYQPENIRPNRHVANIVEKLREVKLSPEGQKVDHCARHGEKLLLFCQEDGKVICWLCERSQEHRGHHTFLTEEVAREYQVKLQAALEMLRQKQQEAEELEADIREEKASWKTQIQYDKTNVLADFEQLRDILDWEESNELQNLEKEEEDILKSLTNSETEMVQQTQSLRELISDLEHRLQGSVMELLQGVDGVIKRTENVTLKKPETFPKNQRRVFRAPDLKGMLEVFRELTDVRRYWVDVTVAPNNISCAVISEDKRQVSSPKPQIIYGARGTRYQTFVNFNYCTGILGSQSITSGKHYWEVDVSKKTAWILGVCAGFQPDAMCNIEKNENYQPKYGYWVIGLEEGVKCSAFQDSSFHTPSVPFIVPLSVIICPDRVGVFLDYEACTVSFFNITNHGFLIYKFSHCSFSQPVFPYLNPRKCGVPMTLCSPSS

No constants are given. Whether binding was seen depends on the method and setting. In cells and extracts the contact can be indirect. These calls come from enrichment with a bait or labelling near it, and not all partners need be listed.

The target of this assay is Replication and transcription activator (Rta) of Epstein–Barr virus, endogenous in lytically induced P3HR1 cells (Epstein–Barr virus (endogenous in P3HR1)) (UniProt P03209). Nature of the assay: affinity purification with mass spectrometry.

With “TRIM5α, endogenous in P3HR1 cells (from UniProt Q9C035 1-493)”, the binding result is on record as “binds”.
